Measured values as given in patent US20070027086A1.
These are yes or no findings as the source states them, for the method shown. Some results given as binding are weak or reduced against the parent protein; the word gives no strength. Sequences can lack the tags named with a protein.

Protein sequences, listed by entry. Tags and fused reporters are not part of them.
UniProt Q01726: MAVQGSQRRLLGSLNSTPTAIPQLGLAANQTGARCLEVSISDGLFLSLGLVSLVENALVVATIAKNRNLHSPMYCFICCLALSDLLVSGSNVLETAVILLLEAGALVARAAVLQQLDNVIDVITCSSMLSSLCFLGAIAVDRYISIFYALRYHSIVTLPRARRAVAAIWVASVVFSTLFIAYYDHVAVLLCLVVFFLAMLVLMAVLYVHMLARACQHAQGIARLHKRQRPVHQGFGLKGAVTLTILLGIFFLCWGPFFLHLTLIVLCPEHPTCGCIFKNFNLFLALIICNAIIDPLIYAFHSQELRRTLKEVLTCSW

Target: human MC1-receptor (melanocortin 1 receptor) (human) (UniProt Q01726)
Test: competition with [^125I]NDP-MSH on COS-1 cells expressing human MC1 receptor

binding: binds
Binder: SSIISHFRWGKPV (D-phenylalanine at 7 (dPhe); C-terminal amide (Val-NH2)) [MS09 (Ser-Ser-Ile-Ile-Ser-His-dPhe-Arg-Trp-Gly-Lys-Pro-Val-NH2)]
